# Experimental data taken from PubChem BioAssay AID624297 (National Center for Advancing Translational Sciences (NCATS), 2012).
# Values joined by “and” are separate entries in the source; they are usually repeats but may differ in a detail not shown here. Equal values may be shown once. The campaign covered roughly 340,000 compounds. About 6,200 (1.8%) were called active. The shares of active, inactive and inconclusive entries below differ from those in the screen. The call rests on the fitted dose curve; in most records, active means well fitted activation curve with a large enough effect; inconclusive means small, poorly fitted or top-dose-only effect; inactive means no such curve, though single readings can be large or run the other way. A potency beside an inconclusive call is a rough fit, not a confirmed value.
# Assay: A quantitative high throughput screen for small molecules that induce DNA re-replication in SW480 colon adenocarcinoma cells. Further: nearly all actives have a fitted effect of over 55% in size. On re-replication activation: % of control where 0% means no effect.
# Details: Hoechst DNA content imaging, 48 h; re-replication activation: at 46.1 µM (top of the series) unless noted
# Outline: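 Image-based DNA-content assay: after two days of treatment, nuclei were labelled with the DNA dye Hoechst and imaged, and hits were compounds raising the count of nuclei showing high fluorescence intensity.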
# Potency means the concentration at half of the fitted maximal effect.
SMILES,re-replication activation,Potency
O=C1NN(c2ccccc2)C(=O)/C1=C/c1ccc(-c2ccc(C(=O)O)cc2)o1,inconclusive: 51.4% [activator],
COCCn1c(=N)c(C(=O)NCc2ccco2)cc2c(=O)n3ccccc3nc21,,"inconclusive: 14.1 µM [activator, single point]"
COc1ccc2cc(C(=O)/C=C/c3cc(OC)c(O)c(OC)c3)ccc2c1,,"inconclusive: 16.4 µM [activator, single point]"
CC(C)(C)Nc1nc(Cl)nc(N(C#N)CN2C(=O)c3ccccc3S2(=O)=O)n1,,"inconclusive: 18.4 µM [activator, single point]"
COc1ccc(S(=O)(=O)NCc2cccnc2)cc1NC(=O)c1ccc(Cl)cc1,inactive: -6.74%,
O=C(COC(=O)C1=Cc2ccccc2OC1)NCc1ccc(F)cc1,,"inconclusive: 23.1 µM [activator, single point]"
COc1ccc(-n2c(=O)/c(=C\c3cccs3)s/c2=C(/C#N)C(=O)N2CCN(C)CC2)cc1,,"inconclusive: 29.1 µM [activator, single point]"
COCC(C)OC(=O)c1c(N)n(CC(C)C)c2nc3ccccc3nc12 (stereo not drawn),,"inconclusive: 18.4 µM [activator, single point]"
CC1CCCN(CCOCCOc2ccc(Cl)cc2Br)C1 (stereo not drawn),,"inconclusive: 0.146 µM [activator, full curve, poor fit]"
Nc1nc(-c2cc(O)ccc2[N+](=O)[O-])cc(-c2ccccc2)c1[N+](=O)[O-],,active: 23.1 µM
CCCNC(=O)CSc1n[nH]c(=O)n1CCc1ccccc1,inactive: -25.8%,
CCOCCCNC(=O)C1CCN(S(=O)(=O)N2CC(C)CC(C)C2)CC1 (stereo not drawn),,"inconclusive: 29.1 µM [activator, single point]"
COC(/C(=N/O)c1ccc(Cl)cc1)c1ccccc1 (stereo not drawn),,"inconclusive: 20.6 µM [activator, partial curve, poor fit]"
N#C/C(=C\c1cn(CCOc2ccccc2)c2ccccc12)C(=O)NCc1ccco1,,"inconclusive: 6.51 µM [activator, single point]"
O=C(c1cc(-c2ccc(Cl)s2)nc2ccccc12)N1CCOCC1,,"inconclusive: 23.1 µM [activator, single point]"
CCCNS(=O)(=O)c1ccc(CCC(=O)N2CCCCC2)cc1,,"inconclusive: 23.1 µM [activator, partial curve, poor fit]"
COc1ccccc1N1CCN(C(=O)c2cc3c(=O)n4ccccc4nc3s2)CC1,,"inconclusive: 29.1 µM [activator, single point]"
Cc1ccc(OCc2nnc(SCC(=O)Nc3nccs3)n2-c2ccccc2)cc1C,inactive: -0.092%,
COc1ccc(/C=C/c2nc3ccccc3n2C)cc1,inactive: 0.685%,
N#C/C(=C\c1ccc(-c2ccccc2C(=O)O)o1)c1nc2ccccc2[nH]1,,"inconclusive: 20.6 µM [activator, single point]"
CC1CCCN(Cc2csc(N)n2)C1 (stereo not drawn),,"inconclusive: 1.16 µM [activator, single point]"
Cc1ccc(/C=N/NC(=O)CSc2nc3ccccc3c(=O)n2-c2ccccc2)s1,inactive: -5.91%,
O=c1c2cn[nH]c2nc(SCc2ccc3c(c2)OCCO3)n1-c1ccccc1,,"inconclusive: 31.6 µM [activator, single point]"
CN(Cc1cccc(F)c1)C(=O)c1ccccc1Sc1ccccc1C#N,,"inconclusive: 29.1 µM [activator, single point]"
Cc1ccc(C)c(C(=O)CSc2nc3ccccc3c(=O)[nH]2)c1,,"inconclusive: 20.6 µM [activator, partial curve, poor fit]"

SMILES,re-replication activation,Potency
Cc1cccc(C)c1NC(=O)COC(=O)c1cc(-c2cccnc2)nc2ccccc12,inactive: -0.182%,
O=[N+]([O-])c1ccc(CN2CCN(Cc3c[nH]c4ccccc34)CC2)cc1,inactive: 9.2%,
O=C(O)Cn1cnc2c(oc3ccccc32)c1=O,,"inconclusive: 23.1 µM [activator, single point]"
O=C(CSCc1ccccc1Cl)NNC(=S)Nc1ccccc1,inactive: -0.716%,
CC(C)N(C(=O)[C@H]1C[C@H](CC(=O)NCCCN(C)C)C(=O)N2CCc3c([nH]c4ccc(Cl)cc34)[C@]12C)C(C)C,,active: 18.4 µM
O=C(CSc1nnc(SCc2ccc(Cl)cc2)s1)N/N=C/c1c[nH]c2ccccc12,,"inconclusive: 16.4 µM [activator, partial curve, poor fit]"
O=C(Nc1ccccc1F)c1ccc([N+](=O)[O-])s1,,active: 14.6 µM
C=CCn1c(-c2cccs2)nc2ccccc21,inactive: -2.19%,
COc1c(S(=O)(=O)NCCCn2ccnc2)ccc(Cl)c1Cl,,"inconclusive: 29.1 µM [activator, single point]"
CCCCC(=O)NC(c1ccccc1)c1ccc2cccnc2c1O (stereo not drawn),,active: 0.517 µM
COc1ccc(-c2ccc(CCC(=O)O)n2CC2CCCO2)cc1 (stereo not drawn),,"inconclusive: 16.4 µM [activator, single point]"
C=CCN=C1CC(C)(C)C(C(=O)OC)C(O)=C1C(=O)CCC (stereo not drawn),inactive: -19.3%,
CN(C(=O)COC(=O)CNC(=O)c1sc2ccccc2c1Cl)C1CCS(=O)(=O)C1 (stereo not drawn),inactive: -2.31%,
Cc1ccc(CN2C(=O)N/C(=C\c3ccc(N4CCOCC4)cc3)C2=O)cc1,,active: 14.6 µM
CSCc1cc(N(C)C)nc(SCc2ccc(Cl)cc2Cl)n1,,"inconclusive: 29.1 µM [activator, single point]"
CCOC(=O)C1=C(O)c2ccccc2C(=O)/C1=C\c1ccc(C)cc1,,"inconclusive: 29.1 µM [activator, single point]"
CC(C)(CO)CNC(=O)CCc1nnc(-c2ccc(-c3ccccc3)cc2)o1,inactive: 1.54%,
O=C(Nc1cccc(-c2cn3ccccc3n2)c1)C1CC1,inactive: -7.03%,
Cc1nn(-c2ccccc2)c(N2CCCC2)c1/C=N/NC(=S)Nc1ccc(F)cc1,,active: 5.8 µM
C[C@@H]1CCCCCCCCC(=O)OCCN[C@H](C)CCCCCCCCC(=O)OCCN[C@H](C)CCCCCCCCC(=O)OCCN1,,"inconclusive: 29.1 µM [activator, single point]"
Cc1ccccc1C(=O)N(Cc1cccs1)C1CCS(=O)(=O)C1 (stereo not drawn),inactive: -7.77%,
COc1ccc(C(=O)NC(=S)NNC(=O)CCc2ccccc2)cc1,,"inconclusive: 16.4 µM [activator, partial curve]"
Cc1cccc(C(=O)NNC(=O)c2ccccc2O)c1,,"inconclusive: 20.6 µM [activator, partial curve, poor fit]"
O=C(N/N=C/c1ccccn1)c1ccc(NC(=O)c2ccc(F)cc2)cc1,,"inconclusive: 0.651 µM [activator, partial curve, poor fit]"
CCOc1cc(CNc2ccc(CNc3ncn[nH]3)cc2)ccc1OCc1ccccc1,inactive: -44%,

SMILES,re-replication activation,Potency
Cc1[nH]oc(=O)c1N=Nc1ccccc1,,"inconclusive: 0.164 µM [activator, partial curve, poor fit]"
CCCCCCSc1ccc(-c2nc3ccc(C)cn3c2NCc2ccccc2)cc1OC,,"inconclusive: 7.31 µM [activator, single point]"
Cc1ccc(NC(=O)N2N=C(c3ccc(F)cc3)CC2c2ccc(F)cc2)cc1 (stereo not drawn),,active: 5.17 µM
CN(C(=O)C1CCCN(c2ncnc3c2nc2n3CCCCC2)C1)c1cccc(Cl)c1 (stereo not drawn),inactive: -17.6%,
Cn1c(O)c(N=NC(=O)c2ccccc2O)c2ccccc21,,"inconclusive: 32.6 µM [activator, partial curve, poor fit]"
CCOC(=O)c1c(NC(=O)C2C3C=CC(C3)C2C(=O)O)sc2c1CC(C)CC2 (stereo not drawn),inactive: -9.18%,
c1ccc2[nH]c(Cn3nnc4ccccc43)nc2c1,inactive: -3.65%,
CNCCCC12CCC(c3ccccc31)c1ccccc12,,"inconclusive: 20.6 µM [activator, single point] and inconclusive: 29.1 µM [activator, single point]"
CSc1ccccc1NC(=O)C1CC(c2c(F)cccc2Cl)=NO1 (stereo not drawn),inconclusive: 28% [activator],
COc1ccc(-c2csc3nc(-c4ccccc4OC)oc(=O)c23)cc1,,active: 16.4 µM
COc1ccccc1-c1nnc2sc(C3CCCCC3)nn12,inactive: -3.12%,
COCCNC(=O)c1cccc(OC2CCN(C(C)COc3ccccc3)CC2)c1 (stereo not drawn),inactive: -34.1%,
Cc1ccc2c(CC(=O)NC3CCCc4ccccc43)coc2c1 (stereo not drawn),,"inconclusive: 4.61 µM [activator, partial curve, poor fit]"
N/C(=N\OC(=O)c1cccc(Cl)c1)c1ccncc1,,"inconclusive: 16.4 µM [activator, partial curve, poor fit]"
Cc1cccc(-n2ncc3c2CCCC3NC(=O)Cc2c(C)noc2C)c1C (stereo not drawn),,"inconclusive: 4.61 µM [activator, single point]"
CCn1cc(C(=O)N[C@@H](CCSC)C(=O)NCCCN2CCOCC2)c(=O)c2cc3c(cc21)OCO3,inactive: -2.77%,
C=CCn1c(O)c(N=NC(=S)Nc2cccc(C)c2)c2ccccc21,,"inconclusive: 2.91 µM [activator, full curve, poor fit]"
CCNC(=O)C(=O)N/N=C/c1cc([N+](=O)[O-])ccc1O,inactive: 33.4%,
Cc1ccc(N2CC(C(=O)Nc3nnc(C)s3)CC2=O)cc1 (stereo not drawn),inactive: -3.14%,
C=CCN(CC=C)Cc1c(C)[nH]c2c(C)c(C)ccc2c1=O,inactive: 0.18%,
CC(C)=CC(=O)O[C@@H]1Cc2cc3ccc(=O)oc3cc2OC1(C)C,inactive: -6.29%,
O=C1Cc2c([nH]c3ccc(Br)cc23)-c2ccccc2N1,inactive: 26.1%,
OCCN=c1cc(-c2ccccc2)oc2ccc(Cl)cc12,,"inconclusive: 29.1 µM [activator, single point]"
